Source: PubChem BioAssay AID1224904 (Broad Institute, 2016).

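293T-iDUX4 dual-reporter cells; luminescence of the tet-on Italica luciferase control is read after 24 h. The test concentration is not given here. Percent change in the Italica control signal; more negative values mean stronger inhibition, which points to nonspecific, tet-on or cytotoxic effects.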

Values are in %. Common to all entries: measured here: Italica tet-on control reporter. Part of the compounds only, not a random draw; the main read-out is not listed here.

| # | compound | activity change (%) |
|---|---|---|
| 1 | `O=C(CC1CC1)N1CC2(C1)[C@H](c1ccccc1)[C@H](CO)N2Cc1cccc(F)c1` | -5.246 |
| 2 | `O=C(NC1CCCC1)[C@H]1[C@H](CO)[C@H]2Cn3c(ccc(-c4ccccc4)c3=O)[C@H]2N1CCc1ccccc1` | -14.26 |
| 3 | `COc1ccc(S(=O)(=O)N2CCC3(CC2)CN(Cc2ccncc2)[C@H](CO)c2[nH]c4cc(OC)ccc4c23)cc1` | -19.39 |
| 4 | `COc1ccc(-c2ccc3c(c2)[C@H]2[C@H](CCN2S(=O)(=O)c2ccccc2C)[C@H](CO)N3)cc1` | -69.54 |
| 5 | `Cc1cccc(S(=O)(=O)N(C)C[C@@H]2OCc3ccccc3-c3c(n(C)c4ccccc34)C(=O)N([C@H](C)CO)C[C@@H]2C)c1` | -75.97 |
| 6 | `O=C(C[C@H]1CC[C@H]2[C@@H](COC[C@H](O)CN2Cc2ccc(Cl)cc2)O1)NCc1cccc(F)c1` | -19.27 |
| 7 | `COc1cccc(-c2ccc3c(c2)[C@H]2[C@H](CCN2S(=O)(=O)c2ccccc2OC)[C@@H](CO)N3)c1` | -61.25 |
| 8 | `O=C(Cc1ccncc1)Nc1ccc2c(c1)[C@H]1C[C@H](CC(=O)N3CCc4ccccc4C3)O[C@H](CO)[C@H]1O2` | -2.427 |
| 9 | `C[C@H](NC(=O)C[C@H]1CC[C@@H](NC(=O)Cc2ccccn2)[C@@H](CO)O1)c1ccccc1` | -10.63 |
| 10 | `C[C@H]1CN([C@@H](C)CO)C(=O)c2c(c3ccccc3n2C)-c2ccccc2CO[C@@H]1CN(C)C(=O)Nc1cccc(C(F)(F)F)c1` | -67.64 |
| 11 | `COc1ccc2c3c(n(C)c2c1)[C@@H](CO)N(C)CC31CN(C(=O)c2ccc3c(c2)OCO3)C1` | -1.625 |
| 12 | `O=C(C[C@H]1CC[C@H](NC(=O)Nc2cc(F)ccc2F)[C@@H](CO)O1)Nc1ccc(-c2ccccc2)cc1` | -4.438 |
| 13 | `Cc1cccc(S(=O)(=O)N(C)C[C@@H]2OCc3ccccc3-c3c(n(C)c4ccccc34)C(=O)N([C@@H](C)CO)C[C@@H]2C)c1` | -50.43 |
| 14 | `COc1ccc(C#Cc2ccc([C@@H]3[C@@H](CO)N4C(=O)CN(C(=O)NC(C)C)C[C@@H]34)cc2)cc1` | -13.67 |
| 15 | `CCS(=O)(=O)N1CCC2(CC1)CN(S(=O)(=O)c1cccc(OC)c1)[C@H](CO)c1[nH]c3cc(OC)ccc3c12` | -12.4 |
| 16 | `Cc1ccccc1S(=O)(=O)N(C)C[C@@H]1OCc2ccccc2-c2c(n(C)c3ccccc23)C(=O)N([C@@H](C)CO)C[C@@H]1C` | -44.34 |
| 17 | `COc1ccc2c3c([nH]c2c1)[C@@H](CO)N(Cc1cccc(F)c1)CC31CCN(Cc2ccccn2)CC1` | -63 |
| 18 | `COc1cccc(S(=O)(=O)N2CC[C@@H]3[C@H](CO)Nc4ccc(C#Cc5cccnc5)cc4[C@@H]32)c1` | -8.481 |
| 19 | `CC(C)CC#Cc1ccc([C@@H]2[C@H](CO)N3C(=O)CN(C(=O)Nc4cc(F)ccc4F)C[C@@H]23)cc1` | -40.41 |
| 20 | `N#C[C@H]1[C@@H](c2ccccc2-c2ccc(F)cc2)[C@@H](CO)N1C(=O)NC1CCCCC1` | -33.15 |
| 21 | `COc1ccc2c3c([nH]c2c1)[C@H](CO)N(Cc1cc(F)ccc1F)CC31CCN(C)CC1` | -17.66 |
| 22 | `O=C(c1cnccn1)N1CC(=O)N2[C@@H](CO)[C@@H](c3ccc(C#CCc4ccccc4)cc3)[C@@H]2C1` | -16.48 |
| 23 | `O=C(Nc1cc(F)ccc1F)N[C@@H]1CC[C@@H](CC(=O)N2CCc3ccccc3C2)O[C@H]1CO` | -3.898 |
| 24 | `C[C@@H]1CN([C@H](C)CO)C(=O)c2c(c3ccccc3n2C)-c2ccccc2CO[C@H]1CN(C)C(=O)Nc1cccc(Cl)c1Cl` | -37.2 |
| 25 | `O=C(C[C@@H]1CC[C@H]2[C@@H](COC[C@H](O)CN2Cc2ccc(Cl)cc2)O1)NCc1cccc(F)c1` | -19.24 |
| 26 | `CCCNC(=O)[C@@H]1[C@@H](CO)[C@@H]2Cn3c(ccc(/C=C/c4ccccc4)c3=O)[C@@H]2N1CC1CC1` | -17.8 |
| 27 | `O=C(C[C@H]1C[C@@H]2c3cc(NC(=O)c4ccc5c(c4)OCO5)ccc3O[C@@H]2[C@@H](CO)O1)NC1CCCCC1` | -9.661 |
| 28 | `COc1ccc(S(=O)(=O)Nc2ccc3c(c2)OC[C@@H](C)NC[C@H](C)[C@H](OC)CN(C)C3=O)cc1` | -0.2913 |
| 29 | `O=S(=O)(Cc1ccccc1)N1CCCCN2[C@H](C1)[C@H](c1ccc(-c3ccc(F)cc3)cc1)[C@@H]2CO` | -43.96 |
| 30 | `CN1CCCCN2[C@H](CO)[C@@H](c3ccc(C#CC4(O)CCCC4)cc3)[C@H]2C1` | -4.045 |
| 31 | `N#C[C@H]1[C@@H](c2ccccc2-c2ccc(F)cc2)[C@@H](CO)N1c1ncc(-c2ccccc2)s1` | -9.299 |
| 32 | `O=C(C[C@H]1CC[C@H]2[C@@H](COC[C@H](O)CN2Cc2nccs2)O1)N1CCC(Cc2ccccc2)CC1` | -26.33 |
| 33 | `O=C1CN(S(=O)(=O)Cc2ccccc2)C[C@H]2[C@H](c3ccc(C#Cc4ccccc4)cc3)[C@H](CO)N12` | -17.44 |
| 34 | `CN1c2ccc(-c3cccc(C#N)c3)cc2[C@H]2[C@H](CCN2C(=O)C2CCCCC2)[C@H]1CO` | -17.67 |
| 35 | `COc1cccc(-c2ccc([C@H]3[C@@H](CO)N4CCCCN(C(=O)Cc5ccncc5)C[C@H]34)cc2)c1` | -2.435 |
| 36 | `COc1ccccc1NC(=O)N[C@H]1C=C[C@@H](CC(=O)NCc2ccc(Cl)c(Cl)c2)O[C@@H]1CO` | -23.7 |
| 37 | `N#Cc1cccc(-c2ccc([C@@H]3[C@@H](CO)N4CCCCN(C(=O)Nc5cccc(F)c5)C[C@H]34)cc2)c1` | -25.66 |
| 38 | `C[C@@H]1CN([C@@H](C)CO)C(=O)c2c(c3ccccc3n2C)-c2ccccc2CO[C@H]1CN(C)S(=O)(=O)Cc1ccccc1` | -13.21 |
| 39 | `COc1cc(CN2CC3(CN(S(=O)(=O)c4cccc(F)c4)C3)c3c([nH]c4cc(OC)ccc34)[C@@H]2CO)cc(OC)c1` | -7.591 |
| 40 | `O=C(C[C@H]1CC[C@H]2[C@@H](COC[C@@H](O)CN2CCC(F)(F)F)O1)NCc1ccc(Oc2ccccc2)cc1` | -33.02 |
| 41 | `C[C@H](CO)N1C[C@H](C)[C@@H](CN(C)S(C)(=O)=O)OCc2ccccc2-c2ccccc2C1=O` | 5.402 |
| 42 | `O=C(Nc1cc(F)ccc1F)N[C@@H]1CC[C@H](CC(=O)N2CCc3ccccc3C2)O[C@H]1CO` | -9.884 |
| 43 | `CC(C)CC#Cc1ccc([C@H]2[C@@H](CO)N3CCCCN(C(=O)Nc4ccccc4)C[C@H]23)cc1` | -45.31 |
| 44 | `COc1ccccc1CNC(=O)C[C@@H]1CC[C@@H]2[C@H](COC[C@@H](O)CN2C(=O)Nc2ccc(C(F)(F)F)cc2)O1` | -18.51 |
| 45 | `CN1c2ccc(-c3ccccc3)cc2[C@@H]2[C@@H](CCN2C(=O)NC2CCCCC2)[C@H]1CO` | -39.17 |
| 46 | `Cc1ccccc1-c1ccc(C2[C@@H]3CN(S(=O)(=O)c4cn(C)cn4)C[C@H]2N3)cc1` (some centres not stated) | -9.727 |
| 47 | `COc1ccc2c3c([nH]c2c1)[C@@H](CO)N(Cc1ccccc1F)CC31CCN(S(C)(=O)=O)CC1` | -9.455 |
| 48 | `CC(C)c1cn(CC[C@@H]2CC[C@@H](NC(=O)Nc3cc(Cl)cc(Cl)c3)[C@H](CO)O2)nn1` | -18.3 |
| 49 | `O=S(=O)(c1cccc(F)c1)N1CC[C@@H]2[C@H](CO)Nc3ccc(C#Cc4cccc(F)c4)cc3[C@@H]21` | -12.26 |
| 50 | `COc1ccc2c3c(n(C)c2c1)[C@H](CO)N(Cc1ccccc1)CC31CN(CC2CC2)C1` | -17.35 |
| 51 | `C[C@@H](NC(=O)C[C@@H]1CC[C@@H]2[C@H](COC[C@H](O)CN2Cc2ccc(C(F)(F)F)cc2)O1)c1ccccc1` | 6.1 |
| 52 | `COc1cccc(S(=O)(=O)N2CC[C@@H]3[C@@H](CO)Nc4ccc(-c5ccccc5OC)cc4[C@@H]32)c1` | -51.09 |
| 53 | `O=C(Nc1ccc(F)cc1)N1CC(=O)N2[C@H](CO)[C@H](c3ccc(C#Cc4ccccc4)cc3)[C@H]2C1` | -5.867 |

6 of the entries, repeated:

For O=C(C[C@H]1CC[C@H]2[C@@H](COC[C@@H](O)CN2CCC(F)(F)F)O1)NCc1ccc(Oc2ccccc2)cc1 the result was activity change -33.02%.
For C[C@@H]1CN([C@@H](C)CO)C(=O)c2c(c3ccccc3n2C)-c2ccccc2CO[C@H]1CN(C)S(=O)(=O)Cc1ccccc1 the result was activity change -13.21%.
For O=C(C[C@H]1CC[C@H]2[C@@H](COC[C@H](O)CN2Cc2ccc(Cl)cc2)O1)NCc1cccc(F)c1 the result was activity change -19.27%.
For O=C(Nc1ccc(F)cc1)N1CC(=O)N2[C@H](CO)[C@H](c3ccc(C#Cc4ccccc4)cc3)[C@H]2C1 the result was activity change -5.867%.
For COc1ccc2c3c([nH]c2c1)[C@@H](CO)N(Cc1cccc(F)c1)CC31CCN(Cc2ccccn2)CC1 the result was activity change -63%.
For O=C(CC1CC1)N1CC2(C1)[C@H](c1ccccc1)[C@H](CO)N2Cc1cccc(F)c1 the result was activity change -5.246%.